## Library screen at single concentrations

Amino acid sequences for entries named in this document (tags omitted).
UniProt P9WFT3, whole entry: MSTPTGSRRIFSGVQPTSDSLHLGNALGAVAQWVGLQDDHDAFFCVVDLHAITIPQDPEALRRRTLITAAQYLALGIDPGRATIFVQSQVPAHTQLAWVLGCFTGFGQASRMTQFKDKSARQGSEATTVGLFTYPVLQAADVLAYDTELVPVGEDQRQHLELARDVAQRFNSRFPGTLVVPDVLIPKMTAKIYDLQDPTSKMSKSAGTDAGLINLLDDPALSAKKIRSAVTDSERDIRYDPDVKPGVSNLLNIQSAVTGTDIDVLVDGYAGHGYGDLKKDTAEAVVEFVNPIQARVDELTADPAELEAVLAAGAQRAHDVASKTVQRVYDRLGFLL
UniProt P9WNZ1, whole entry: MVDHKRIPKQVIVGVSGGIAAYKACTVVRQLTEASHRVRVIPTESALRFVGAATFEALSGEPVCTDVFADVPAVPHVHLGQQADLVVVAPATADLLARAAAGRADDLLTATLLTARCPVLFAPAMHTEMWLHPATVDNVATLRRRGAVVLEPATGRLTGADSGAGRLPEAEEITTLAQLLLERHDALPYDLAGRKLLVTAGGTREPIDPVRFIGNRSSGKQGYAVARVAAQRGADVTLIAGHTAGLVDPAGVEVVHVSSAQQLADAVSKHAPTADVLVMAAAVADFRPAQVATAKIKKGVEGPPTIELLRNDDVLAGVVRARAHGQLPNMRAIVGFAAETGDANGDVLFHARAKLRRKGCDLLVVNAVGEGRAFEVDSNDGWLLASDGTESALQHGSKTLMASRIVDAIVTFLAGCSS

Data taken from ChEMBL document CHEMBL3988442, “University of Dundee, Small-Polar-MMV Screening Library” (2021).

Leishmania in macrophages: 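Cell assay of Leishmania donovani living inside macrophages; the read-out is not stated. Compounds at 30 µM. Higher reads as stronger inhibition (inferred: compounds with an IC50 in retests scored well above the rest). Size under these conditions: about 69,000 compounds, about 1,000 of them at 50% or above in at least one test.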
MtTrpRS: 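Tryptophan-tRNA ligase, Mycobacterium tuberculosis (UniProt P9WFT3). Enzyme assay of tryptophanyl-tRNA synthetase; the read-out is not stated. Compounds at 10 µM. Direction is not recorded; retested compounds ran higher, which suggests that high means inhibition. About 65,000 compounds were tested under these conditions; 0.098% (about 64) showed 50% or more at least once.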
Toxoplasma: 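Assay of Toxoplasma gondii numbers, read through their beta-galactosidase reporter with a colour substrate. Concentration: 10 µM. Higher reads as fewer parasites (inferred from which compounds were picked for retests). About 67,000 compounds were tested under these conditions; 0.38% (about 260) showed 50% or more at least once.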
CoaBC: 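Coenzyme A biosynthesis protein CoaBC, Mycobacterium tuberculosis (UniProt P9WNZ1). Enzyme assay of CoaBC with a phosphate dye (Biomol Green) read at 650 nm. Compounds at 30 µM. Higher reads as stronger inhibition, judged from the few compounds that gave an IC50. Most strong results did not repeat in a second test. Size under these conditions: about 67,000 compounds, about 40 of them at 50% or above in at least one test.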

Results are given as percent effect. How 0% and 100% were set is not recorded. Most values in the screen are low, and negative values occur. The compounds are a random part of those screened.

{"compound": "Cc1nc(CNc2nc3c(s2)c(C)nn3C)cs1", "Leishmania in macrophages": -7.67, "MtTrpRS": -7.392, "Toxoplasma": 17.65, "CoaBC": 0.4673}
{"compound": "CCN1CCCC12CCN(Cc1cccnc1OC)CC2", "MtTrpRS": -3.991}
{"compound": "COc1cccc2c1OCC(C(=O)N1CCN(S(C)(=O)=O)CC1)C2", "stereo": "configuration not stated", "Leishmania in macrophages": 9.817, "MtTrpRS": 4.094, "Toxoplasma": -0.674, "CoaBC": 3.07}
{"compound": "c1cncc(COCC2CN(Cc3ccncc3)Cc3ccnn3C2)c1", "stereo": "configuration not stated", "Leishmania in macrophages": -5.912, "MtTrpRS": -6.712, "Toxoplasma": 4.713, "CoaBC": -0.4673}
{"compound": "CC(c1nc(C2CC2)no1)N1CCN(CCc2ccncc2)CC1", "stereo": "configuration not stated", "Leishmania in macrophages": 9.014, "MtTrpRS": -9.223, "Toxoplasma": 6.095, "CoaBC": 2.871}
{"compound": "CCCS(=O)(=O)N1CCO[C@H]2[C@H](OCc3ccccn3)CC[C@@H]21", "MtTrpRS": 2.439, "CoaBC": 5.176}
{"compound": "Cc1[nH]ccc1C(=O)N[C@H]1CN(CCO)C[C@@H]1C1CC1", "Leishmania in macrophages": 17.73, "MtTrpRS": 2.468, "Toxoplasma": 0, "CoaBC": -6.452}
{"compound": "CC1=Nc2c(c(=O)[nH]n2C2CCCC2)C(c2cccc(O)c2)S1", "stereo": "configuration not stated", "Leishmania in macrophages": 4.126, "MtTrpRS": 0.000009, "Toxoplasma": 5.14, "CoaBC": 7.133}
{"compound": "CN(CC1=CCCN(Cc2cccc(C#N)c2)C1)C(=O)c1ccco1", "Leishmania in macrophages": 11.2, "MtTrpRS": 6.296, "Toxoplasma": -0.6882, "CoaBC": 2.941}
{"compound": "CCc1nc2n(n1)CCCC2NC(=O)Nc1ccc(SC)c(F)c1", "stereo": "configuration not stated", "Leishmania in macrophages": 21.24, "MtTrpRS": -1.816, "Toxoplasma": 1.321, "CoaBC": 5.645}
{"compound": "O=C(CSc1nnc[nH]1)NCc1cccs1", "Leishmania in macrophages": 6.528, "MtTrpRS": 1.474, "Toxoplasma": 19.27, "CoaBC": -1.373}
{"compound": "CCn1c(C)cc(C(=O)Nc2ccccc2CN(C)C(C)=O)c1C", "Leishmania in macrophages": 15.99, "MtTrpRS": 0.571, "Toxoplasma": 4.053, "CoaBC": -2.685}
{"compound": "O=C1NC(c2ccccc2)=N[C@@]12CC[C@@H]1CN(CC3CCOCC3)C[C@@H]12", "MtTrpRS": -1.154, "CoaBC": -0.6345}
{"compound": "CCCNC(=O)c1cc(C2CCCN(Cc3ccccn3)C2)no1", "stereo": "configuration not stated", "Leishmania in macrophages": 3.483, "MtTrpRS": 5.333, "Toxoplasma": 5.748, "CoaBC": -4.574}
{"compound": "COc1c(CNCCc2c[nH]c3cc(F)ccc23)c(C)nn1C", "Leishmania in macrophages": 15.25, "MtTrpRS": 2.581, "Toxoplasma": -0.2722, "CoaBC": 1.684}
{"compound": "[H][C@]12CC[C@]([H])(CN(C(=O)c3ccccn3)C1)N(C(=O)OC(C)C)C2", "Leishmania in macrophages": 4.046, "Toxoplasma": -7.717}
{"compound": "Cc1ccc2c(c1)CN(C(=O)C1CCCCC1)C(CN(C)C)CO2.Cl", "stereo": "configuration not stated", "Leishmania in macrophages": 45.22, "Toxoplasma": 9.801}
{"compound": "CN1C(=O)CC(C(=O)O)C12CCN(c1ccc3c(n1)CCCC3)CC2", "stereo": "configuration not stated", "Leishmania in macrophages": 21.03, "MtTrpRS": -0.6441, "Toxoplasma": -13.48, "CoaBC": 6.277}
{"compound": "[H][C@]12CN(c3ncc(CC)cn3)C[C@@]1([H])S(=O)(=O)CC[C@@H]2C(=O)N(C)C", "Leishmania in macrophages": 30.23, "Toxoplasma": 12.86}
{"compound": "Cn1nc(COCC2CC2)c2c1CN(C(=O)c1ccno1)CC2", "MtTrpRS": -0.07047, "CoaBC": 6.131}
{"compound": "CCCS(=O)(=O)NCc1cccnc1OCC", "Leishmania in macrophages": 20.47, "MtTrpRS": 6.214, "Toxoplasma": 3.824, "CoaBC": 10.91}
{"compound": "O=C(O)C(F)(F)F.O=C1CCC2(CCCN(CCc3ccccc3)C2)N1Cc1cccnc1", "stereo": "configuration not stated", "Leishmania in macrophages": 26.92, "Toxoplasma": 4.646}
{"compound": "CC(=O)OCC1CCCCN1C(=O)c1ccc(Cn2ccnc2)o1", "stereo": "configuration not stated", "Leishmania in macrophages": -10.21, "MtTrpRS": -0.698, "Toxoplasma": -13.22, "CoaBC": -4.218}
{"compound": "CC(=O)N[C@@H]1CN(C(=O)c2cc(C)oc2C)C[C@H]1c1ccc(C)o1", "Leishmania in macrophages": 11.63, "MtTrpRS": 1.598, "Toxoplasma": -7.18, "CoaBC": -0.7212}
{"compound": "Cc1ccc(CN2CCC3(CC2)NC(=O)CC3c2ccccc2)s1.O=C(O)C(F)(F)F", "stereo": "configuration not stated", "Leishmania in macrophages": -4.595, "Toxoplasma": -21.83}
{"compound": "CC(C)[C@H](N)C(=O)N1CCCC(C2=Nc3ccccc3S(=O)(=O)N2)C1.Cl", "stereo": "some centres not stated", "Leishmania in macrophages": 20.05, "Toxoplasma": 18.93}

The first 2 entries again:

- Cc1nc(CNc2nc3c(s2)c(C)nn3C)cs1 | Leishmania in macrophages: -7.67%; MtTrpRS: -7.392%; Toxoplasma: 17.65%; CoaBC: 0.4673%
- CCN1CCCC12CCN(Cc1cccnc1OC)CC2 | MtTrpRS: -3.991%